# Test results reported in PMC11941830.
# Protein sequences, listed by entry. Tags and fused reporters are not part of them. Residues count along the entry.
# UniProt P02787, residues 20-698: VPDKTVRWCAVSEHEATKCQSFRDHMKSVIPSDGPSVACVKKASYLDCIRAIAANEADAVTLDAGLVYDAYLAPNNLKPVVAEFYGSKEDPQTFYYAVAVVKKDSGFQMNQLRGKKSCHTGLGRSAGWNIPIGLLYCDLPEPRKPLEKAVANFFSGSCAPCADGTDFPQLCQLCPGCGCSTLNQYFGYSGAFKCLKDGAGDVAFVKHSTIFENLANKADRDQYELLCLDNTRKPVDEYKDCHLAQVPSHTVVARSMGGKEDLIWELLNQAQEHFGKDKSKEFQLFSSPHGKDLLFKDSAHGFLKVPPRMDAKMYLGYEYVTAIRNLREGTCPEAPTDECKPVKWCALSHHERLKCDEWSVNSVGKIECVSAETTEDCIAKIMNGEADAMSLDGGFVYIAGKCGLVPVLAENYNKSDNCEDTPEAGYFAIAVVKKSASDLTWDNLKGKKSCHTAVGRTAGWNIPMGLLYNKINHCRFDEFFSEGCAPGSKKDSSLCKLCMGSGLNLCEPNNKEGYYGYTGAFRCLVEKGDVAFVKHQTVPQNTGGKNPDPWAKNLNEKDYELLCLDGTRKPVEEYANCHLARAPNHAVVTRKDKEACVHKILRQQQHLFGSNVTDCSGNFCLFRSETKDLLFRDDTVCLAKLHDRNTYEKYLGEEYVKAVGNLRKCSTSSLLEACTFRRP
# Results are given in words; binding and its absence hold for the method and conditions named. Binding seen in cells or lysates may run through a third protein. Some entries that bind do so weakly or less than the wild type. Where a sequence is shown, tags or fusion partners need not be part of it.
# Biological target: T1, Full-length human hephaestin variant D568H with a C-terminal FLAG-tag (human) (UniProt Q9BQS7)
# T1 sequence: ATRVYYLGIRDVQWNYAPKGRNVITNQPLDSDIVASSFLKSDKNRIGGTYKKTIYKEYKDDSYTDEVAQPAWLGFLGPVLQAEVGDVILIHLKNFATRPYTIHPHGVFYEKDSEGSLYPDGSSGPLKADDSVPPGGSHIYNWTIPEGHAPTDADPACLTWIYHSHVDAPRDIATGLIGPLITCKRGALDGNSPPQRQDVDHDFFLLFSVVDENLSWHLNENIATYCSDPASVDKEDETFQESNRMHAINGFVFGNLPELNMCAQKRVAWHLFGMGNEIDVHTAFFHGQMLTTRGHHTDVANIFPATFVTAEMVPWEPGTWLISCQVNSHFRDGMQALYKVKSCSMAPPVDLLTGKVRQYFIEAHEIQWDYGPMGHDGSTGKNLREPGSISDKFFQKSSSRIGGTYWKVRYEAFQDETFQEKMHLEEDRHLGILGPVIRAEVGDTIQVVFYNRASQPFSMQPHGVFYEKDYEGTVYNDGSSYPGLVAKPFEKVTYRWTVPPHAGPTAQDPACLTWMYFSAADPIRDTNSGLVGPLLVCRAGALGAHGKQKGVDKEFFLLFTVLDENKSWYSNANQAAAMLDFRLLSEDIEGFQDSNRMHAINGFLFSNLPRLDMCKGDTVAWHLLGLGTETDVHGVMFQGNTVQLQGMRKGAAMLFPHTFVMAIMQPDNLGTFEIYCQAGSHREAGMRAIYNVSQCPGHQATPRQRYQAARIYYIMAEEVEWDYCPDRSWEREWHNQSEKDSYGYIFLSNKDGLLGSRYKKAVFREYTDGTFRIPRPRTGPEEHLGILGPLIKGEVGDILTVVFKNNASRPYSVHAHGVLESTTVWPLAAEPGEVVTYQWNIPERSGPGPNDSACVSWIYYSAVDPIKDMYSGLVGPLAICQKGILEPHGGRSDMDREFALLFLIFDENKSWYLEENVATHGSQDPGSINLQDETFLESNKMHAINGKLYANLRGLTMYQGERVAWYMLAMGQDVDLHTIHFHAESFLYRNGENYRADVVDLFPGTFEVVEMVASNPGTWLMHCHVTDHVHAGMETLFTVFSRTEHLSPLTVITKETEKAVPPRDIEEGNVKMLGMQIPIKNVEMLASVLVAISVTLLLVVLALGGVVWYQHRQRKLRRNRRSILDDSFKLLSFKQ
# Test: co-IP; HEK293T expressing full-length Heph incubated for 30 min with 0.25 µM apo-Tfn or holo-Tfn in serum-free medium; DSP cross-linking before lysis; DYKDDDDK Fab-Trap immunoprecipitation; anti-Tfn blot; only the binder purified
substance,measurement,value
Apo-transferrin (iron-depleted transferrin) (from UniProt P02787 20-698),binding,binds weakly
